Paper PMC2535662, “Identification of COUP-TFII Orphan Nuclear Receptor as a Retinoic Acid–Activated Receptor” (PLoS Biology, 2008)
These are yes or no findings as the source states them, for the method shown. Where a sequence is shown, tags or fusion partners need not be part of it.

Biological target: T1, 6X His-GST-COUP-TFII LBD fusion protein (human, UniProt P24468 173-414, C174S)
T1 construct: The limits and C174S come from the protein preparation paragraph; also called receptor LBD; source: E. coli BL21 (DE3), purified as a 6X His-GST fusion protein; not shown: 6x Histidine, N-terminal, kept; GST, N-terminal, kept
T1 sequence (looked up): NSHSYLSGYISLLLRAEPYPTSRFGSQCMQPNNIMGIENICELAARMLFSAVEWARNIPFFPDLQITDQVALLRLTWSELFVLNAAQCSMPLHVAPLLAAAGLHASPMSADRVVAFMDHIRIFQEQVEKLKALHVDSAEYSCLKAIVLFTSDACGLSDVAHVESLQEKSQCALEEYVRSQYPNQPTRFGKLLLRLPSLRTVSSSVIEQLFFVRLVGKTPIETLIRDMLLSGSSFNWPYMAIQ
Assay: AlphaScreen or HTRF; approximately 0.4 μM 6X His-GST receptor LBD and 0.1 μM biotinylated peptide, 20 μg/ml donor and acceptor beads; 50 mM MOPS, 50 mM NaF, 50 mM CHAPS, 0.1 mg/ml bovine serum albumin, pH 7.4; no ligand added; both purified

## AENQRGPLESKGHKKLLQLLTSS (biotin (position not given)) [biotinylated SRC3–1 peptide]
  binding: no binding (condition: in the absence of ligand)
